## Results of single-concentration screens

Data taken from ChEMBL document CHEMBL3988442, “University of Dundee, Small-Polar-MMV Screening Library” (2021).

Mtb glucose medium: 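Whole-cell growth test on Mycobacterium tuberculosis, read after 3 days in glucose-containing 7H9 medium; the read-out is not stated. Compounds at 500 µM. Higher reads as more growth inhibition (inferred: compounds with an IC50 in retests scored well above the rest). Of about 18,000 compounds tested this way, about 1,400 (7.9%) reached 50% or more in at least one test.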
Mtb cholesterol medium: 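Whole-cell growth test on Mycobacterium tuberculosis, read after 4 days in a medium based on cholesterol and the lipid DPPC; the read-out is not stated. Concentration: 500 µM. The record gives no direction; compounds that gave an IC50 in retests scored well above the rest, so higher reads as more growth inhibition. Of about 18,000 compounds tested this way, about 900 (5%) reached 50% or more in at least one test.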

Values are the deposited “Percent Effect”, in %.
The record does not define 0% and 100%; most values in the screen are far below 50% and negative numbers occur (in some assays of this library far below -100).
Compounds were drawn at random from those tested, without regard to their results.

* OCC(CO)NC1CCc2c(Cl)cc(Cl)cc21 (stereo not given) | Mtb glucose medium: 31.38%; Mtb cholesterol medium: 38.74%
* CCC(N)C(=O)N1CCN(c2cc(C)ccc2C)CC1 (stereo not given) | Mtb glucose medium: 20.85%; Mtb cholesterol medium: -17.47%
* COc1ccc(CN2CCN(C)CC2)c(OC)c1C | Mtb glucose medium: -1.218%; Mtb cholesterol medium: -0.1542%
* COCCN(CC(N)=O)S(=O)(=O)c1cc(F)ccc1C | Mtb glucose medium: 13.94%; Mtb cholesterol medium: -4.449%
* O=S(=O)(Cc1ccon1)N1CCCC(c2ncc[nH]2)C1 (stereo not given) | Mtb glucose medium: -3.416%; Mtb cholesterol medium: 7.7%
* COc1ccc(OC2CCNCC2)nc1 | Mtb glucose medium: -2.165%; Mtb cholesterol medium: 4.844%
* CCCS(=O)(=O)NCc1ccc(S(N)(=O)=O)cc1 | Mtb glucose medium: 1.097%; Mtb cholesterol medium: -12.37%
* Cn1cc(CNS(N)(=O)=O)cn1 | Mtb glucose medium: 7.18%; Mtb cholesterol medium: 8.756%
* NCC1CCNc2ccccc21 (stereo not given) | Mtb glucose medium: -2.01%; Mtb cholesterol medium: -16.69%
* O=C(OCCF)c1cccc(N2CCCNC2=O)c1 | Mtb glucose medium: -0.9378%; Mtb cholesterol medium: -2.564%
* Cc1ccccc1CS(=O)(=O)CC(N)=O | Mtb glucose medium: 5.765%; Mtb cholesterol medium: -1.344%
* CC(C)n1ccnc1CN1CCCC2(C1)OCCO2 | Mtb glucose medium: 10.07%; Mtb cholesterol medium: 24.82%
* COc1cc(C(=O)NCC2CCC2)cc2c1OCCO2 | Mtb glucose medium: 58.01%; Mtb cholesterol medium: 39.49%
* COC(=O)C(N)c1ccn(C)n1 (stereo not given) | Mtb glucose medium: 18.87%; Mtb cholesterol medium: 17.85%
* COc1ccc(S(=O)(=O)N(C)C)cc1NCC1CC1 | Mtb glucose medium: 56.66%; Mtb cholesterol medium: 36.67%
* COc1cccc(Nc2ccc(N)nc2)c1 | Mtb glucose medium: 73.49%; Mtb cholesterol medium: 78.88%
* CCOC(=O)CNc1ccc(OC)cc1 | Mtb glucose medium: 59.11%; Mtb cholesterol medium: 10.95%
* CNCc1n[nH]c(=O)n1-c1ccc(Cl)cc1C | Mtb glucose medium: -0.3242%; Mtb cholesterol medium: 0.6822%
* COC(=O)C(C)(N)c1cccnc1 (stereo not given) | Mtb glucose medium: -6.259%; Mtb cholesterol medium: 2.305%
* NS(=O)(=O)c1ccc(NC(=O)N2CCCCC2)cc1 | Mtb glucose medium: 11.48%; Mtb cholesterol medium: -4.468%
* N[C@H]1CCOc2c(F)cc(F)cc21 | Mtb glucose medium: 37.39%; Mtb cholesterol medium: -2.602%
* CCCNC(=O)CN(C)Cc1ccnc(N(C)C)n1 | Mtb glucose medium: 41.11%; Mtb cholesterol medium: 33%
* CCNc1nc(C)c(C(=O)NC(C)c2n[nH]c(=O)[nH]2)s1 (stereo not given) | Mtb glucose medium: 4.799%; Mtb cholesterol medium: -4.157%
* O=C(CCOc1ccccc1)NCC1COCCO1 (stereo not given) | Mtb glucose medium: 3.486%; Mtb cholesterol medium: 25.41%
* CC[C@@]1(O)CCN(C(=O)c2sc(OC)nc2C)C[C@H]1O | Mtb glucose medium: 13.17%; Mtb cholesterol medium: 5.888%
* Cc1cc(C)c(C#N)c(N2C[C@@H]3CCN(C)[C@@H]3C2)n1 | Mtb glucose medium: -0.5764%; Mtb cholesterol medium: -9.268%
* O=S(=O)(c1cccc2ncccc12)N1CCCC1 | Mtb glucose medium: 49.67%; Mtb cholesterol medium: 28.27%
* CCC(C)(C#N)NC(=O)c1ccccc1 (stereo not given) | Mtb glucose medium: 11.92%; Mtb cholesterol medium: -2.748%
* COC(=O)c1cc(Br)cc(S(N)(=O)=O)c1Cl | Mtb glucose medium: 13.72%; Mtb cholesterol medium: 26.15%
* CC(C)(CO)NC(=O)CCC(=O)c1cccs1 | Mtb glucose medium: 9.124%; Mtb cholesterol medium: 9.615%
* O=C(NCCNCC1(O)CCNC1)c1ccccc1Cl (stereo not given) | Mtb glucose medium: 12.22%; Mtb cholesterol medium: 2.062%
* CC(C)COCC(C)NC(=O)CCCn1cccn1 (stereo not given) | Mtb glucose medium: 40.25%; Mtb cholesterol medium: 40.37%
* COc1cc(F)cc(NCC(=O)NCc2ccco2)c1 | Mtb glucose medium: 74.97%; Mtb cholesterol medium: 73.23%
* COc1ccc(N(C)C(=O)c2cnn(C)c2)cc1F | Mtb glucose medium: 8.312%; Mtb cholesterol medium: -3.279%
* COc1cc(CCCO)cc(OC)c1O | Mtb glucose medium: 25.33%; Mtb cholesterol medium: 16.94%
* Cc1cc(=O)n(CCN(C)CC(O)CO)c(=O)[nH]1 (stereo not given) | Mtb glucose medium: 2.679%; Mtb cholesterol medium: -7.746%
* COc1cccc(CNC(=O)N2CCSCC2)c1OC | Mtb glucose medium: 14.32%; Mtb cholesterol medium: 14.5%
* CN(C)CCn1cc(NC(=O)Cc2cccs2)cn1 | Mtb glucose medium: 20.55%; Mtb cholesterol medium: 5.717%
* COc1ccc(Cl)cc1S(=O)(=O)n1cncn1 | Mtb glucose medium: -1.443%; Mtb cholesterol medium: -6.133%
* O=C(NCC1CCCO1)c1cc2ccccc2[nH]c1=O (stereo not given) | Mtb glucose medium: -8.569%; Mtb cholesterol medium: -11.41%
* CCC(CC)NC(=O)Nc1ccn(CCN(C)C)n1 | Mtb glucose medium: 11.99%; Mtb cholesterol medium: 7.625%
* NCc1cn(Cc2ccc(F)cc2)nn1 | Mtb glucose medium: 29.31%; Mtb cholesterol medium: -8.841%
* CC(=O)N1CCC(C(=O)Nc2cc(C)ccn2)CC1 | Mtb glucose medium: 8.28%; Mtb cholesterol medium: -4.306%
* Cc1ccc(S(=O)(=O)NCC(C)N)cc1Br (stereo not given) | Mtb glucose medium: 36.84%; Mtb cholesterol medium: 7.904%
* C[C@@H]1NCC[C@@H]1NC(=O)OC(C)(C)C | Mtb glucose medium: -0.212%; Mtb cholesterol medium: -4.499%
* Cc1ccc(C(=O)NCCNc2cnccn2)o1 | Mtb glucose medium: 37.21%; Mtb cholesterol medium: 24.46%
* COC(=O)C(C)S(N)(=O)=O (stereo not given) | Mtb glucose medium: -9.137%; Mtb cholesterol medium: -14.08%

The first 4 entries again:

SMILES	Mtb glucose medium	Mtb cholesterol medium
OCC(CO)NC1CCc2c(Cl)cc(Cl)cc21 (stereo not given)	31.38	38.74
CCC(N)C(=O)N1CCN(c2cc(C)ccc2C)CC1 (stereo not given)	20.85	-17.47
COc1ccc(CN2CCN(C)CC2)c(OC)c1C	-1.218	-0.1542
COCCN(CC(N)=O)S(=O)(=O)c1cc(F)ccc1C	13.94	-4.449